Where “and” joins values, the source holds several entries; their conditions need not be identical. Identical values can stand only once. Entries after “also recorded” stand apart in the source; their conditions may differ. Not every detail of the peptide structures is certain; ends, links or a residue may be inferred.
How the values were obtained:
guinea-pig trachea = settings: 100 nM
rabbit aortic rings = test: Relaxation of precontracted rabbit aortic rings (isometric tension); assay type: cell-based; settings: for relaxation of aortic rings, cumulative additions: intact rings precontracted with phenylephrine (100 μM), 10 nM to 1 μM, FIG. 2
[1] = tested on: cGMP and cAMP content of rabbit aortic rings; test: Cyclic GMP and cyclic AMP content of rabbit aortic rings (enzyme-immunoassay); assay type: cell-based; settings: 1 μM, FIG. 9; for cGMP content of aortic rings: at maximum relaxation
rabbit sphincter of Oddi = test: Contractility of isolated rabbit sphincter of Oddi; assay type: cell-based; settings: for inhibition of contraction frequency / inhibition of ACh-enhanced phasic contractions: 1 μM; for inhibition of ACh-enhanced phasic contractions: ACh 10 μM; for effect on ACh-induced contractions: ACh-pretreated (10 μM), cumulative addition, peptides 1 nM-1 μM, GSNO 0.1-100 μM; for inhibition of basic contraction frequency and amplitude: cumulative addition 1 nM-1 μM, FIG. 5, 6
corpora cavernosa = test: Erectile response (intracavernosal pressure) in vivo in the anesthetized dog
Procedure: Male mongrel dogs (20-30 kg) were used as the animal model. Under pentobarbital anesthesia (30 mg/kg) and mechanical respiration, a 20 gauge anglocatheter was placed into the carotid artery for measurement of systemic blood pressure. A ventral incision was made in the penis and the corpora cavernosa were exposed.
A 19 gauge minicatheter was inserted deep into the cavernosal tissue, on each corpus, for pressure measurement and delivery of either VIP, VIP-Gly-Cys-NO, VIP-Gly-Cys-NH2 or papaverine. […] Drugs were delivered intracavernosally in solution, 0.5 ml volume, at variable syringe concentrations, starting at 10^-7 M and progressively increasing the dose up to, in some instances, 10^-4 M. In most experiments, at the end, papaverine 80 mM was administered intracavernosally in order to compare this response to those elicited by VIP or its analogs. At all times systemic blood pressure was monitored, for comparison with intracavernosal pressure.

[2] = tested on: rabbit corpus cavernosum tissue; test: Organ chamber studies of corpus cavernosum reactivity; assay type: cell-based; settings: FIG. 11, 12; for relaxation of corpus cavernosum strips (comparison): phenylephrine-contracted, at maximal effective concentration; for maximal effective concentration for relaxation: strips contracted with phenylephrine (5 to 7×10^-7 M)
[3] = tested on: cGMP and cAMP content of guinea pig tracheal rings; test: Cyclic GMP and cyclic AMP content of guinea pig tracheal rings (enzyme-immunoassay); assay type: cell-based; settings: 100 nM, n=4, FIG. 10; for cGMP content of tracheal rings: at plateau of relaxation
[4] = Stabilities of VIPGC-NO (photodecomposition, Saville assay); assay type: physicochemical; settings: samples exposed to sunlight vs stored in dark, regardless of pH; FIG. 1
[5] = intracavernosal 3×10^6 M, FIG. 14
[6] = intracavernosal 3×10^-7 and 10^-6 M (0.5 ml), FIG. 14
[7] = intracavernosal 10^-6 M, FIG. 15

CC[C@H](C)[C@H](NC(=O)[C@H](CO)NC(=O)[C@H](CC(N)=O)NC(=O)[C@H](CC(C)C)NC(=O)[C@H](Cc1ccc(O)cc1)NC(=O)[C@H](CCCCN)NC(=O)[C@H](CCCCN)NC(=O)[C@@H](NC(=O)[C@H](C)NC(=O)[C@H](CCSC)NC(=O)[C@H](CCC(N)=O)NC(=O)[C@H](CCCCN)NC(=O)[C@H](CCCNC(=N)N)NC(=O)[C@H](CC(C)C)NC(=O)[C@H](CCCNC(=N)N)NC(=O)[C@@H](NC(=O)[C@H](Cc1ccc(O)cc1)NC(=O)[C@H](CC(N)=O)NC(=O)[C@H](CC(=O)O)NC(=O)[C@@H](NC(=O)[C@H](Cc1ccccc1)NC(=O)[C@@H](NC(=O)[C@H](C)NC(=O)[C@H](CC(=O)O)NC(=O)[C@H](CO)NC(=O)[C@@H](N)Cc1c[nH]cn1)C(C)C)[C@@H](C)O)[C@@H](C)O)C(C)C)C(=O)N[C@@H](CC(C)C)C(=O)N[C@@H](CC(N)=O)C(=O)NCC(=O)N[C@@H](CS)C(N)=O [VIPGC, VIP-Gly-Cys-NH2]
time for relaxation to reach a plateau (guinea-pig trachea): about 20 minutes
relaxation of aortic rings, cumulative additions (rabbit aortic rings): certain degree of relaxation only at 1 μM
cGMP content of aortic rings [1]: less than that of VIPGC-NO or GSNO
cAMP content of aortic rings [1]: no significant increase in cAMP content
persistence of effect (rabbit sphincter of Oddi): at least 90 minutes
time to observed effect after addition to organ chambers (rabbit sphincter of Oddi): ≤ 2 min
inhibition of contraction frequency (rabbit sphincter of Oddi): 88±12%
inhibition of ACh-enhanced phasic contractions (rabbit sphincter of Oddi): 72±22%
effect on ACh-induced contractions (rabbit sphincter of Oddi): gradually attenuated
inhibition of basic contraction frequency and amplitude (rabbit sphincter of Oddi): inhibited both basic contraction frequency and amplitude dose-dependently
erectile response (corpora cavernosa; [5]): no response
erectile response (corpora cavernosa; [6]): no effect
erectile response (corpora cavernosa; [7]): no effect
relaxation of corpus cavernosum strips (comparison) [2]: maintains the biological activity
maximal effective concentration for relaxation [2]: 3 µM
cGMP content of tracheal rings [3]: significant increase in the content of cGMP
cAMP content of tracheal rings [3]: no concomitant increases in the cAMP level

CC[C@H](C)[C@H](NC(=O)[C@H](CO)NC(=O)[C@H](CC(N)=O)NC(=O)[C@H](CC(C)C)NC(=O)[C@H](Cc1ccc(O)cc1)NC(=O)[C@H](CCCCN)NC(=O)[C@H](CCCCN)NC(=O)[C@@H](NC(=O)[C@H](C)NC(=O)[C@H](CCSC)NC(=O)[C@H](CCC(N)=O)NC(=O)[C@H](CCCCN)NC(=O)[C@H](CCCNC(=N)N)NC(=O)[C@H](CC(C)C)NC(=O)[C@H](CCCNC(=N)N)NC(=O)[C@@H](NC(=O)[C@H](Cc1ccc(O)cc1)NC(=O)[C@H](CC(N)=O)NC(=O)[C@H](CC(=O)O)NC(=O)[C@@H](NC(=O)[C@H](Cc1ccccc1)NC(=O)[C@@H](NC(=O)[C@H](C)NC(=O)[C@H](CC(=O)O)NC(=O)[C@H](CO)NC(=O)[C@@H](N)Cc1c[nH]cn1)C(C)C)[C@@H](C)O)[C@@H](C)O)C(C)C)C(=O)N[C@@H](CC(C)C)C(=O)N[C@@H](CC(N)=O)C(=O)NCC(=O)N[C@@H](CSN=O)C(N)=O [VIPGC-NO, VIP-Gly-Cys-NO]
time for relaxation to reach a plateau (guinea-pig trachea): about 20 minutes
relaxation of aortic rings, cumulative additions (rabbit aortic rings): produced relaxations in a dose-dependent manner
relaxation of phenylephrine-precontracted aortic rings (rabbit aortic rings; single doses (1 μM), FIG. 3): complete vasorelaxations
cGMP content of aortic rings [1]: significant increase in cGMP concentration
cAMP content of aortic rings [1]: no significant increase in cAMP content
persistence of effect (rabbit sphincter of Oddi): at least 90 minutes
time to observed effect after addition to organ chambers (rabbit sphincter of Oddi): ≤ 2 min
inhibition of contraction frequency (rabbit sphincter of Oddi): 91±10%
inhibition of ACh-enhanced phasic contractions (rabbit sphincter of Oddi): 90±3%
effect on ACh-induced contractions (rabbit sphincter of Oddi): gradually attenuated
inhibition of basic contraction frequency and amplitude (rabbit sphincter of Oddi): inhibited both basic contraction frequency and amplitude dose-dependently
irregular and incomplete contractions noted during incubation (rabbit sphincter of Oddi; single dose 0.1 μM, 30 minutes, n=5, FIG. 7): 26±13
duration of the response (corpora cavernosa; 10^-4 M, FIG. 14): longer with SNO-VIP
erectile response (corpora cavernosa; 10^-5 M, FIG. 16): larger and more sustained erection
erectile response (corpora cavernosa; [5]): no response
erectile response (corpora cavernosa; [6]): partial erectile responses
erectile response (corpora cavernosa; [7]): partial erectile response
relaxation of corpus cavernosum strips (comparison) [2]: more potent relaxant that VIPGC; also recorded: more potent relaxant than VIP
maximal effective concentration for relaxation [2]: 3 µM and 3e+12 µM
decay of VIPGC-NO (photodecomposition) [4]: decayed faster
cGMP content of tracheal rings [3]: significant increase in the content of cGMP
cAMP content of tracheal rings [3]: no concomitant increases in the cAMP level

— patent US5612314A, “Nitrosylated neuropeptides” (Brigham & Women's Hospital, priority 1995, dated 1997)
